Each structure is given as a SMILES string.

Holding throughout (format): physicochemical
Data set [1] is described as follows: Separation of industrially relevant binary mixtures by precipitation using L1, L2 and L3 (Example 10). The settings on record: supernatant. As to the method:
Analogous to Example 7), three sets of reaction mixtures with two metals and either compound L1, L2, or L3 were prepared in a 96-well plate with the following differences: each well was equipped with one PTFE-coated magnetic stir bar, the well plate was sealed with a silicon cover, and the reaction mixtures were stirred on a magnetic stirrer for 2 days at room temperature. Analogous to Example 7), the well plate was then centrifuged and concentrations of the metals were determined using ICP-OES. […] It is evident from the results that certain degrees of enrichment are achieved for very different combinations of metals, and that ligands L1, L2, and L3 have different selectivities for given combinations of metals.

Data set [2] is described as follows: Separation of binary mixture of rare-earth metals by precipitation using L1, MOPS pH 8.5 (Example 8). As to conditions: supernatant. As to the method:
Analogous to Example 7), the well plate was then centrifuged and concentrations of the metals were determined using ICP-OES. The resulting concentrations of both metals in the supernatants and their ratios are summarized in […]

Data set [3] can be described thus: Separation of binary mixture of rare-earth metals by precipitation from solution using L1 (Example 7). As to conditions: supernatant. As to the method: Two series of reaction mixtures were prepared, where one rare-earth metal was held constant (Gd or Lu) while the other was a variable rare-earth metal element (except Pm). […] The well plate was sealed with transparent adhesive tape to prevent evaporation and was anchored to a shaker. The well-plate was shaken for 5 days at room temperature at 900 rpm.

Data set [4] in a line: Use of additives to improve separation of Nd/Dy mixture by precipitation with L5 (Example 18). The settings on record: 11 mM L5. As to the method:
Stock solutions were pipetted into plastic 1×1 cm cuvettes to prepare reaction mixtures with concentrations as follows: • 1. […] 5 mM NdCl3 • 3. 5 mM DyCl3 • 4. 500 mM MOPS pH=7 • 5. the additive of interest, in a variable concentration; if possible, stock solutions were prepared from Na^+ salt forms of the compound; if not, the stock solutions were titrated by NaOH/HCl to pH=7 prior to addition (see Table 12 for additives and concentrations)
These aqueous reaction mixtures, each prepared to a total volume of 2.0 mL with the addition of water as necessary, were mixed by the use of a PTFE-coated stir bar on a magnetic stirrer. The cuvettes were sealed with transparent tape to prevent evaporation overnight. The reaction mixtures were stirred for 18 hours, at which point 500 μL aliquots of each reaction mixture were transferred into plastic 2 mL Eppendorf tubes and centrifuged. The supernatants were carefully pipetted out and transferred to a new set of tubes. The precipitate was dissolved by addition of 500 μL 1M HCl. The absolute concentration of Nd and Dy in each supernatant and precipitate was determined by ICP-OES.

With `O=C(O)CN1CCN(CC(=O)O)CCN(Cc2ccccc2)CCN(CC(=O)O)CC1` [L1, 2,2′,2″-(10-benzyl-1,4,7,10-tetraazacyclododecane-1,4,7-triyl)triacetic Acid], the M1/M2 is 0.45 in data set [1] (M1/M2=Eu/Y); 1.55 in data set [1] (M1/M2=La/Ce); 10.45 in data set [1] (M1/M2=Nd/Ce); 0.68 in data set [1] (M1/M2=Nd/Dy); 0.32 in data set [1] (M1/M2=Nd/La); 0.93 in data set [1] (M1/M2=Nd/Pr). In addition, the M1/M2 in data set [1] (M1/M2=Nd/Tb) is on record as 2.29; in data set [1] (M1/M2=Pr/Ce) it was 0.65; in data set [1] (M1/M2=Pr/Dy) it was 1.38; in data set [1] (M1/M2=Pr/La) it was 0.43; in data set [1] (M1/M2=Tb/Dy), 0.76; in data set [1] (M1/M2=Tb/Eu) it was 1.30. Besides, the M1/M2 is 0.55 in data set [1] (M1/M2=Tb/Pr) and 0.40 in data set [1] (M1/M2=Tb/Y). Moreover, the M1/Tm amounted to 0.21 in data set [2] (M1=Ce); 0.15 in data set [2] (M1=Dy); 0.82 in data set [2] (M1=Er); 0.12 in data set [2] (M1=Eu); 0.14 in data set [2] (M1=Gd); 0.22 in data set [2] (M1=Ho). In addition, the M1/Tm stood at 0.25 in data set [2] (M1=La); 1.60 in data set [2] (M1=Lu); 0.17 in data set [2] (M1=Nd); 0.15 in data set [2] (M1=Pr); 1.14 in data set [2] (M1=Sc); 0.10 in data set [2] (M1=Sm). For the same molecule, the M1/Tm is 0.10 in data set [2] (M1=Tb), 1.00 in data set [2] (M1=Tm), 0.20 in data set [2] (M1=Y) and 1.19 in data set [2] (M1=Yb). Also, the M1/Gd turned out to be 2.34 in data set [3] (M1=Ce); 1.76 in data set [3] (M1=Dy); 1.11 in data set [3] (M1=Er); 1.11 in data set [3] (M1=Eu); 1.00 in data set [3] (M1=Gd); 2.38 in data set [3] (M1=Ho). Further, the M1/Gd came to 3.99 in data set [3] (M1=La); 16.94 in data set [3] (M1=Lu); 1.47 in data set [3] (M1=Nd); 1.66 in data set [3] (M1=Pr); 19.94 in data set [3] (M1=Sc); 1.08 in data set [3] (M1=Sm). For the same molecule, the M1/Gd in data set [3] (M1=Tb) was found to be 1.45; in data set [3] (M1=Tm), 11.10; in data set [3] (M1=Y), 2.57; in data set [3] (M1=Yb), 15.12. Moreover, the M1/Lu in data set [3] (M1=Ce) stood at 1.00; in data set [3] (M1=Dy), 1.00; in data set [3] (M1=Er) it was 1.05; in data set [3] (M1=Eu) it was 0.91; in data set [3] (M1=Gd), 0.08; in data set [3] (M1=Ho), 0.96. Moreover, the M1/Lu amounted to 0.96 in data set [3] (M1=La); 1.00 in data set [3] (M1=Lu); 0.11 in data set [3] (M1=Nd); 0.98 in data set [3] (M1=Pr); 1.12 in data set [3] (M1=Sc); 0.07 in data set [3] (M1=Sm). The M1/Lu came to 1.03 in data set [3] (M1=Tb), 1.01 in data set [3] (M1=Tm), 1.01 in data set [3] (M1=Y) and 1.02 in data set [3] (M1=Yb).
In the case of `O=C(O)CN1CCNCCN(CC(=O)O)CCN(Cc2ccc(C(=O)O)cc2)CC1` [L3, 2,2′-(4-(4-carboxybenzyl)-1,4,7,10-tetraazacyklododekane-1,7-diyl)Diacetic Acid], the M1/M2 in data set [1] (M1/M2=Eu/Y) is 0.21; in data set [1] (M1/M2=La/Ce), 3.08; in data set [1] (M1/M2=Nd/Ce) it was 0.00; in data set [1] (M1/M2=Nd/Dy), 0.00; in data set [1] (M1/M2=Nd/La) it was 0.00; in data set [1] (M1/M2=Nd/Pr) it was 0.00. The M1/M2 in data set [1] (M1/M2=Nd/Tb) came to 1.00; in data set [1] (M1/M2=Pr/Ce) it was 2.86; in data set [1] (M1/M2=Pr/Dy), 0.53; in data set [1] (M1/M2=Pr/La), 0.14; in data set [1] (M1/M2=Tb/Dy) it was 0.37; in data set [1] (M1/M2=Tb/Eu), 1.06. Also, the M1/M2 in data set [1] (M1/M2=Tb/Pr) turned out to be 0.83; in data set [1] (M1/M2=Tb/Y) it was 0.23.
With `CC(=O)O` [acetate], the “Separation factor (Dy/Nd)” value was determined as 19.0 in data set [4] (additive 50 mM), 35.3 in data set [4] (additive 100 mM), 14.4 in data set [4] (additive 250 mM) and 1.1 in data set [4] (additive 500 mM).
Consider `O=C(O)c1ccccc1` [benzoic acid], for which the “Separation factor (Dy/Nd)” value in data set [4] (additive 20 mM) came to 10.8; in data set [4] (additive 50 mM), 72.1; in data set [4] (additive 100 mM), 38.9; in data set [4] (additive 150 mM), 24.6; in data set [4] (additive 200 mM) it was 4.6.
Consider `Cl` [chloride], for which the “Separation factor (Dy/Nd)” value in data set [4] (additive 100 mM) came to 1.2; in data set [4] (additive 200 mM) it was 1.8; in data set [4] (additive 500 mM), 2.2; in data set [4] (additive 1000 mM), 2.2.
For `O=C(O)CC(O)(CC(=O)O)C(=O)O` [citrate], the “Separation factor (Dy/Nd)” value in data set [4] (additive 1 mM) is recorded as 2.9; in data set [4] (additive 5 mM), 8.6; in data set [4] (additive 10 mM), 17.2; in data set [4] (additive 20 mM) it was 18.1.
In the case of `O=C(O)c1cccc(C(=O)O)n1` [dipicolinic acid], the “Separation factor (Dy/Nd)” value in data set [4] (additive 20 mM) came to 14.3.
With `F` [fluoride], the “Separation factor (Dy/Nd)” value in data set [4] (additive 5 mM) is reported as 11.6; in data set [4] (additive 10 mM), 20.4; in data set [4] (additive 15 mM) it was 13.9.
On to `O=CO` [formate], for which the “Separation factor (Dy/Nd)” value in data set [4] (additive 50 mM) is recorded as 8.5; in data set [4] (additive 100 mM), 3.2; in data set [4] (additive 250 mM), 24.8; in data set [4] (additive 500 mM), 27.2.
Turning to `NCC(=O)O` [glycine], the “Separation factor (Dy/Nd)” value in data set [4] (additive 50 mM) worked out at 15.1; in data set [4] (additive 100 mM), 7.8; in data set [4] (additive 150 mM), 42.0; in data set [4] (additive 200 mM) it was 25.7.
On to `O=C(O)CO` [glycolate], for which the “Separation factor (Dy/Nd)” value in data set [4] (additive 5 mM) is given as 33.3; in data set [4] (additive 10 mM) it was 42.8; in data set [4] (additive 15 mM), 37.1; in data set [4] (additive 20 mM), 31.5.
`C[C@H](O)C(=O)O` [l-lactate]: the “Separation factor (Dy/Nd)” value in data set [4] (additive 5 mM) is 4.3; in data set [4] (additive 10 mM), 25.8; in data set [4] (additive 15 mM), 18.1; in data set [4] (additive 20 mM), 26.3.
Consider `O=[N+]([O-])O` [nitrate], for which the “Separation factor (Dy/Nd)” value in data set [4] (additive 100 mM) came out at 2.6; in data set [4] (additive 200 mM) it was 2.9; in data set [4] (additive 500 mM), 6.2; in data set [4] (additive 1000 mM), 16.7.
As for `OB(O)c1ccccc1` [phenylboronic acid], the “Separation factor (Dy/Nd)” value in data set [4] (additive 20 mM) turned out to be 4.3; in data set [4] (additive 250 mM), 1.7.
On to `c1ccncc1` [pyridine], for which the “Separation factor (Dy/Nd)” value was 5.0 in data set [4] (additive 20 mM) and 5.3 in data set [4] (additive 250 mM).
`O=C(O)[C@@H](O)c1ccccc1` [s-mandelic acid]: in data set [4] (additive 20 mM), the “Separation factor (Dy/Nd)” value is 32.4.
The same measure, in the same setting: the value for `O=C(O)c1ccccc1O` [salicylic acid] was 6.8.
Turning to `O=S(=O)(O)O` [sulfate], the “Separation factor (Dy/Nd)” value was 5.7 in data set [4] (additive 100 mM), 7.4 in data set [4] (additive 250 mM), 2.1 in data set [4] (additive 500 mM) and 4.8 in data set [4] (additive 1000 mM).
In the case of `N#C[S-].[Na+]` [thiocyanate], the “Separation factor (Dy/Nd)” value was 2.3 in data set [4] (additive 100 mM), 1.3 in data set [4] (additive 200 mM), 2.2 in data set [4] (additive 500 mM) and 5.8 in data set [4] (additive 1000 mM).
In the case of `CC(C)(O)C(=O)O` [α-HIBA, alpha-hydroxyisobutyric acid], the “Separation factor (Dy/Nd)” value is recorded as 26.5 in data set [4] (additive 5 mM), 43.4 in data set [4] (additive 10 mM), 37.2 in data set [4] (additive 15 mM) and 28.4 in data set [4] (additive 20 mM).

For the origin of these results see patent US20230356105A1, “TETRAAZADODECANE BASED CHELATING AGENTS FOR SEPARATION OF RARE EARTH ELEMENTS AND METHOD THEREFOR” (Ustav Organicke Chemie a Biochemie AV CR V.V.I., priority 2020, published 2023).
